These are yes or no findings as the source states them, for the method shown. In cells and extracts the contact can be indirect. These calls come from enrichment with a bait or labelling near it, and not all partners need be listed.
T1: Huntingtin Yeast Two-Hybrid Protein K, recombinant 6HN-HYPK (UniProt Q9NX55)
T1 sequence: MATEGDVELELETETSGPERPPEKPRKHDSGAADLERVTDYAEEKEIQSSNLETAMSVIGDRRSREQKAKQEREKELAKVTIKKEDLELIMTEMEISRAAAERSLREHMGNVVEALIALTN

Protein sequences, listed by entry. Tags and fused reporters are not part of them. Residues count along the entry.
UniProt P14211, residues 18-416: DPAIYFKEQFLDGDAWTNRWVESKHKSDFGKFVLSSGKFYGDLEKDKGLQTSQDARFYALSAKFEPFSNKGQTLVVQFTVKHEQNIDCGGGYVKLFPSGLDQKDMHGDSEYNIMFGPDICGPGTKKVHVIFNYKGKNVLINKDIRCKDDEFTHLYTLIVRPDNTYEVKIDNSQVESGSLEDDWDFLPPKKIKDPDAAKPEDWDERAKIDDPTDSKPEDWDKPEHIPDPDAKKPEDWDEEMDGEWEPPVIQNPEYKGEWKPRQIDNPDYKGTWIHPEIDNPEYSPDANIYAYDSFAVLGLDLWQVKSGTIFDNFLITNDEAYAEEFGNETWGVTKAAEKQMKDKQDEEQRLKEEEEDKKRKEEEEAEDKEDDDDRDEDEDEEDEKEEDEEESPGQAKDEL
UniProt P26443, residues 54-558: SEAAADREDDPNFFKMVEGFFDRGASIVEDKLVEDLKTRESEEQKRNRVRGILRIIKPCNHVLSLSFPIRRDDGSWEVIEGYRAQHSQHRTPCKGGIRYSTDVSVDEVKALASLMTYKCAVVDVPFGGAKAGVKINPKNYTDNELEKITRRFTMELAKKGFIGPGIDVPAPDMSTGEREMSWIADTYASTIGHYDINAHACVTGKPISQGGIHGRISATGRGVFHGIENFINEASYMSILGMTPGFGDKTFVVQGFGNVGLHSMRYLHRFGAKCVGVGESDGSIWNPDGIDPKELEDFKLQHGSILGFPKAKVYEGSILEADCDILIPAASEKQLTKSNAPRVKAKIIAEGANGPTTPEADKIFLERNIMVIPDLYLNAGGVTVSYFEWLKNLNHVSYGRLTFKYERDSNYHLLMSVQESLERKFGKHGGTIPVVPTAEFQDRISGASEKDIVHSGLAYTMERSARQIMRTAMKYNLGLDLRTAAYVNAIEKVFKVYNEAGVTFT
UniProt P11142: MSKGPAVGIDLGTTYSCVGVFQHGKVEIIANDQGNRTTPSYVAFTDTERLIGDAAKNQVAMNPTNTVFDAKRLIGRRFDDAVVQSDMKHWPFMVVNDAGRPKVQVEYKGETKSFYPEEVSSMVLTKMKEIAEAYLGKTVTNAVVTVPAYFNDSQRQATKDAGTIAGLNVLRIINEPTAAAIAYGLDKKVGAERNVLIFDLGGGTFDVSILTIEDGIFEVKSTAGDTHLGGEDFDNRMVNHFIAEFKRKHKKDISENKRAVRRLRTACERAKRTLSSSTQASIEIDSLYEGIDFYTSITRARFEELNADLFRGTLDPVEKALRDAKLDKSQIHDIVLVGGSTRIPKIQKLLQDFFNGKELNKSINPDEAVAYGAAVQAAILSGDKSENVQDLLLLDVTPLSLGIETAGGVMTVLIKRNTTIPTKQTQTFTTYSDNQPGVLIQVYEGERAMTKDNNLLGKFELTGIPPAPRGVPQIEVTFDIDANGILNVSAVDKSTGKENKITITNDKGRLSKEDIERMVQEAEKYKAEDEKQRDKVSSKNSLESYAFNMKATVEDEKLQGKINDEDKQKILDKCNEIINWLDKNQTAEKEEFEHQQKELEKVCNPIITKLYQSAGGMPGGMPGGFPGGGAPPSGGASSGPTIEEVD
UniProt Q80WE4: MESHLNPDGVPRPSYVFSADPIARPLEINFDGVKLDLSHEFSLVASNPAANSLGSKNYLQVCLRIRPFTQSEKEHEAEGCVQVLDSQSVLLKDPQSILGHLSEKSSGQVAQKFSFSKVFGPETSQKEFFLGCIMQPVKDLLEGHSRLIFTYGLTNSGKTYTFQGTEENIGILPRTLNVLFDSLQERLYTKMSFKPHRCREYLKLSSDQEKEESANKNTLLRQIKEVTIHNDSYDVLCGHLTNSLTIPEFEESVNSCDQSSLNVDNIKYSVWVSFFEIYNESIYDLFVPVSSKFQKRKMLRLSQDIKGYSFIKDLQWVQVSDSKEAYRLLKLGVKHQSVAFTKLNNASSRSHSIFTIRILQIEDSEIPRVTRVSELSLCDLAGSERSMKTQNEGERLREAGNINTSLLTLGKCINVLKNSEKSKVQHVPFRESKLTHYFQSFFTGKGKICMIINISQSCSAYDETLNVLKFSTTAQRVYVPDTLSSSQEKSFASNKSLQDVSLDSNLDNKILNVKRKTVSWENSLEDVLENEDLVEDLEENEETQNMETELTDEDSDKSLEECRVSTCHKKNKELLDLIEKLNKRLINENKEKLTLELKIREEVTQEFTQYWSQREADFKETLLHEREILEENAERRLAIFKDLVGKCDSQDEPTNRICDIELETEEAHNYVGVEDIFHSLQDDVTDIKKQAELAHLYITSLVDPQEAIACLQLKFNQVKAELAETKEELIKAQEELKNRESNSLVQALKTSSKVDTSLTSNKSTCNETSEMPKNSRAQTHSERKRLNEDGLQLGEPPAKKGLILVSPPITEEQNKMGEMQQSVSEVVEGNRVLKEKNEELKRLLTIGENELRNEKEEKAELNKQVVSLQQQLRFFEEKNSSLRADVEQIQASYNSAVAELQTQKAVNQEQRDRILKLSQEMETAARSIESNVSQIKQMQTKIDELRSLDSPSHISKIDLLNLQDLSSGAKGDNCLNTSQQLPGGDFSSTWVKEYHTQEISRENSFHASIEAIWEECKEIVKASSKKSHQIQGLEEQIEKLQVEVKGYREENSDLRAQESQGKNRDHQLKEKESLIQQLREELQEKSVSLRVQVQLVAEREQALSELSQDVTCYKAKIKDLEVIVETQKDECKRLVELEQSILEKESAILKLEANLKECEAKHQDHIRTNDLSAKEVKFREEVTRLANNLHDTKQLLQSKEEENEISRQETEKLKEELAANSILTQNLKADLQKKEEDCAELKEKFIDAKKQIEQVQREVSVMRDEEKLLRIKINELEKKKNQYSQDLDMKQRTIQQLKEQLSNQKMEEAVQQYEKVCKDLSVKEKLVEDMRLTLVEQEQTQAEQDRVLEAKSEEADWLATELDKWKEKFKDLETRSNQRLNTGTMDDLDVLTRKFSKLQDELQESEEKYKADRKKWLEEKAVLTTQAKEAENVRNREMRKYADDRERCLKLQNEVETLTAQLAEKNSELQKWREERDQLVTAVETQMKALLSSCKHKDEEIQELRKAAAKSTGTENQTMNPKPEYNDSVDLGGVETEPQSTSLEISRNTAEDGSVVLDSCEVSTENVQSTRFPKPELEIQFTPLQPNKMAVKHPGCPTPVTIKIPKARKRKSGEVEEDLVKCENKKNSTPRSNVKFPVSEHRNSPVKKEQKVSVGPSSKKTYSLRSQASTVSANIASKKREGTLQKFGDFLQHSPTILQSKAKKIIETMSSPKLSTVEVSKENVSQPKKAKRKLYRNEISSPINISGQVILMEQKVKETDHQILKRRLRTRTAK
UniProt Q14739: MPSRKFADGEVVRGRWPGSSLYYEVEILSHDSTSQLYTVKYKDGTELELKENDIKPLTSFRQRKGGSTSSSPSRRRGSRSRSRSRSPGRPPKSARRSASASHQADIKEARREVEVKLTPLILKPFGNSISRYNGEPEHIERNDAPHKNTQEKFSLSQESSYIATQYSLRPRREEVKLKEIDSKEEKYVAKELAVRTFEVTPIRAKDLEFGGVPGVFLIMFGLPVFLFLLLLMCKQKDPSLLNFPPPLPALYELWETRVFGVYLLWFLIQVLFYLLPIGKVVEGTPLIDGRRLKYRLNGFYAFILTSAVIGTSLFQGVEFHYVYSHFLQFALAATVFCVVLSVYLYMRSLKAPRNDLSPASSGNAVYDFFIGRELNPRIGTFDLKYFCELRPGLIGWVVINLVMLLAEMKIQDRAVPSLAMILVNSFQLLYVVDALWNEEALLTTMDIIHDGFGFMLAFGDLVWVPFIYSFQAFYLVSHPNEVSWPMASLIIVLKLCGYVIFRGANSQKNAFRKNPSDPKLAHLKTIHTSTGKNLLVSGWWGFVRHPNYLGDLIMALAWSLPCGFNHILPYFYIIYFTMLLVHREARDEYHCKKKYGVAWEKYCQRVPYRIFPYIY
UniProt Q96PV6: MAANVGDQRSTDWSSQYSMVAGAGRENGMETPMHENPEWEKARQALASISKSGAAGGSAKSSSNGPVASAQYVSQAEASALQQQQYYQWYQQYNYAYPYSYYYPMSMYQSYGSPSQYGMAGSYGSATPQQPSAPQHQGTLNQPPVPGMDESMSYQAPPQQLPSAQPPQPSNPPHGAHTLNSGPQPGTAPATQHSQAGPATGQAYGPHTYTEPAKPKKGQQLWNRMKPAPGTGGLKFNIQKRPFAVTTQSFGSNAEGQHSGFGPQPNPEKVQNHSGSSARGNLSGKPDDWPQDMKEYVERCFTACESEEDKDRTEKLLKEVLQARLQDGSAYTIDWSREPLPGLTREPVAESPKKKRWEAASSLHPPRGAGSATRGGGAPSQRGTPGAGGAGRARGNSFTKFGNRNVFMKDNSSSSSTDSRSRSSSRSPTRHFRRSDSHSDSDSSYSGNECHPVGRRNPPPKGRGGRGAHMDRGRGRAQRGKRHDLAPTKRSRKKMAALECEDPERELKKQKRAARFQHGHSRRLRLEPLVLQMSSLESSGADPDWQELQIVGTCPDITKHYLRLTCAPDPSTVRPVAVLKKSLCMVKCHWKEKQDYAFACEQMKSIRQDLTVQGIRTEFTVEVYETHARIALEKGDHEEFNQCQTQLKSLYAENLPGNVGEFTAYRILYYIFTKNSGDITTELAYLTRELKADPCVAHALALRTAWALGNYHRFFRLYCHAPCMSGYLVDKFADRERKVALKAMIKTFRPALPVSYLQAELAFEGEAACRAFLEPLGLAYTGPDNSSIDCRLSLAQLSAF
UniProt A2ABU4: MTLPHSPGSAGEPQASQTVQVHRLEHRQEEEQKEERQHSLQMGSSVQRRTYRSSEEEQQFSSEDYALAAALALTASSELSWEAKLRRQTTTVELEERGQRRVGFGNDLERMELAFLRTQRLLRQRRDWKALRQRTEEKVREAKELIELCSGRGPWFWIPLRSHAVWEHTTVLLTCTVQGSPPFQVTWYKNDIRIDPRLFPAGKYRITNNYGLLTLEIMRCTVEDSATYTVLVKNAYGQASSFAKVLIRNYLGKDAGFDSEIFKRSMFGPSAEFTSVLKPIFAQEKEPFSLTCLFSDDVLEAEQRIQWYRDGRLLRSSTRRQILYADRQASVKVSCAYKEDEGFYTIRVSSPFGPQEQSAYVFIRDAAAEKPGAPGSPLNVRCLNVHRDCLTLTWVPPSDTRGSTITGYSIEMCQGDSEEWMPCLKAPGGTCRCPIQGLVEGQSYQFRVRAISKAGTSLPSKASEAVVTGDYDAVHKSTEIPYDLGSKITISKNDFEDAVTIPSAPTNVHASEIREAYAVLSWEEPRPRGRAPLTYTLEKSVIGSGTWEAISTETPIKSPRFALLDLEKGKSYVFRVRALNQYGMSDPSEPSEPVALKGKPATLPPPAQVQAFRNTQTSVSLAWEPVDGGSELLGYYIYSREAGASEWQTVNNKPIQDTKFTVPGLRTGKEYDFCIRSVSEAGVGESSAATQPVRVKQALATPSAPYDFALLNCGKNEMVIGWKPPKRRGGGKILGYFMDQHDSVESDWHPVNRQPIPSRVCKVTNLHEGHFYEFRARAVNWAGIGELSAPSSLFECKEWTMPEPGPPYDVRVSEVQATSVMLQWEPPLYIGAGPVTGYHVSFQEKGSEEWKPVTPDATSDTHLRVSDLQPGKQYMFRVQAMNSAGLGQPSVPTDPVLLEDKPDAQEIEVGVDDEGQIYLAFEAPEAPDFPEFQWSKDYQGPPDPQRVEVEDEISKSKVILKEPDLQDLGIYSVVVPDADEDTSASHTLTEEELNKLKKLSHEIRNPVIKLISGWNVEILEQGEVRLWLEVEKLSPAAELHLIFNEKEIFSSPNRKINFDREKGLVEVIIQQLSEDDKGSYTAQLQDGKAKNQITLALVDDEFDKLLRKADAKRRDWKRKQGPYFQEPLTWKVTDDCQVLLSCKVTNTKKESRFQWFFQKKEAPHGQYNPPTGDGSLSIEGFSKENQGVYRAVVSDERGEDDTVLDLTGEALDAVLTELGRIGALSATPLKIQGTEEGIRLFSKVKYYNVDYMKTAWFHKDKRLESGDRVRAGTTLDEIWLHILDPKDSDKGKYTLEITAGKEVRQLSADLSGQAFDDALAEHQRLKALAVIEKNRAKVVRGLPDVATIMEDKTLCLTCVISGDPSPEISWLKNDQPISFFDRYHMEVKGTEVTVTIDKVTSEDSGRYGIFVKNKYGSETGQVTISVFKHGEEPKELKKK
UniProt Q01768: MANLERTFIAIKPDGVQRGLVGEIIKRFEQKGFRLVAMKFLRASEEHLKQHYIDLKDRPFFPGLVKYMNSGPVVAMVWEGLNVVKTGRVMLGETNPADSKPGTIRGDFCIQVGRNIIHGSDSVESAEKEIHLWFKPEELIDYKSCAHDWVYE

B1: Zinc finger protein 516 (protein, UniProt Q7TSH3 1-1157)
chain: MDRSREAEMELRRGPSPPRAGRSHEVDGDKAACHSCCICGKSFPFQSSLSQHMRKHTGEKPYKCPYCDHRASQKGNLKIHIRSHRTGTLIQGHEPEAGEAQLGEMRVSEGLDGCASPTKSTSACNRVLNGAVPMDGSKILLRSSRKEVEGAASAQEDTEATVPCSFCKSRFERKKDLELHVHQAHKPFKCRLCSYVTLREESLLSHIERDHITAQVPNGSEACVENGKPELSPGEFPCEVCGQAFSQTWFLKAHMKKHRGSFDHGCHICGRRFKEPWFLKNHMKAHGPKAGSKNRPKSELDPIATINNVVQEEVIVAGLSLYEVCTKCGNLFTNLDSLNAHNAIHRKVEASRIRAPAEEGDSEDPLDTKQFFLQCLNLTPYVAGDVSPGGQAGRRVAELDPVNSYQAWQLATRGKVAEPAEYLKYGTWDEALAGDVAFDKDKREYILVSQEKRKREQDAPATQAPPRKRASVPGDPMLSGHLDPRPTSRPNRRASATTGQGKSSECFECGKIFRTYHQMVLHSRVHRRARRDRDPEGDRAARARCGSLSEGDSASQPSSPGSACAIADSPGLAEEVVDDSGEEAVPEPASGGQPRHCCSSGEVTPTALSNGDQNHKLGNNLPEKDISEPKVGSAMPSVSILENSSRETTKGPEQHRYSLDLKMPAFHPKQEVPSTTDRVDFPASMEITSLQHTLDSQAGHSKEKLSDLHKEHCGVGKRASAPDLVPLDLSMRSSRDEPSGKEACSLQAALVIHPCPYCTHKTYYPEVLWMHKRIWHRVSCSSVAPPWTQPSGHKSIRSNLVFLTRSGRTGPPPALGGKECQPLLLSRFARTQVPGGAPGSKGSSSPLGVTTKAASMPKNKESHSGGPCALWASGPDGYRQTRAGHGQEPPSAAVQGPLAKPKQEGSSRLAPSPGSGSLSRSTTPTPSVITRVGAQPSANSKPVEKLGGPAVGTGFTPPNKHSAPDSLKAKFSPQPQGQPPLKGEGGSPLPPREPSVKAAQELRTLATCAAGSRGEAALQAPPGAPPTLNSAKQEPAAEGQEKRLDILSIFKTYIPKDFATLYQGWGVSSPGPEHRGTSLTGTPRTQAHQGDFVCVECGKSFHQPSQLRAHLRAHTVVFECDGPRDSEVHTASTDAPKQGRDHTTPGTVPAGPLRKGI
B2: Phosphoglycerate mutase 1 (brain) (protein, UniProt Q9DBJ1 1-254)
chain: MAAYKLVLIRHGESAWNLENRFSGWYDADLSPAGHEEAKRGGQALRDAGYEFDICFTSVQKRAIRTLWTVLDAIDQMWLPVVRTWRLNERHYGGLTGLNKAETAAKHGEAQVKIWRRSYDVPPPPMEPDHPFYSNISKDRRYADLTEDQLPSCESLKDTIARALPFWNEEIVPQIKEGKRVLIAAHGNSLRGIVKHLEGLSEEAIMELNLPTGIPIVYELDKNLKPIKPMQFLGDEETVRKAMEAVAAQGKVKK
B3: IKBKB interacting protein (protein, UniProt Q70UQ0 1-350)
chain: MSEVKSRKKSGPKGAPAAEPGKRSEGGKTPVARSSGGGGWADPRTCLSLLSLGTCLGLAWFVFQQSEKFAKVENQYQLLKLETNEFQQLQSKISLISEKWQKSEAIMEQLKSFQIIAHLKRLQEEINEVKTWSNRITEKQDILNNSLTTLSQDITKVDQSTTSMAKDVGLKITSVKTDIRRISGLVTDVISLTDSVQELENKIEKVEKNTVKNIGDLLSSSIDRTATLRKTASENSQRINSVKKTLTELKSDFDKHTDRFLSLEGDRAKVLKTVTFANDLKPKVYNLKKDFSRLEPLVNDLTLRIGRLVTDLLQREKEIAFLSEKISNLTIVQAEIKDIKDEIAHISDMN
B4: NEDD4 binding protein 1 (protein, UniProt Q6A037 1-893)
chain: MAARVVLDEFTAPAEKAALLERSRGRIEALFGVGLAVLGALGAEEPLPARIWLQLRGAQEAVHSAKEYIKGICEPELEEKECYPKAMHCIFVGAQSLFLKSLIQDTCADLCVLDTGLLGIRGSAEAVVMARSHIQQFVKLFESNENLPSNQRESEIKREFRQFVEAHADSYTMDLLILPTSLKKELLSLTQGEESLFETDDDVITVGDVRPPEYTQSAATGPSSARDEVVVQEDSRNKARTPVSELTKHMDTVFSSSPDVLFVPVNGLSPDEDALSKDRVCHKRRSSDTEERHTKKQFSLENVPEGELLPDGKGSAGNEVIDLSDPASNSTNLSPDGKDTTEEMEYNILVNFFKTMGYSQEIVEKVIREYGPSTEPLLLLEEIEKENKRLQEDRDFPPCTVYPDASQSRNAGVGSTTNELTADSTPKKAQSHTEQSMVERFSQLPFKDSKHCTSNCKVNSFRTVPVGQKQEIWGSKQNSSCTVDLETDGHSASAASASPKDISFVSRGASGHQQRNPAFPENGFQQQTEPLLPNNTKPACEKRSGSCSSPQPKPNYPPLSPPLPLPQLLPSVTEARLGGSSDHIDSSVTGVQRFRDTLKIPYKLELKNEPGRADLKHIVIDGSNVAITHGLKKFFSCRGIAIAVEYFWKLGNRNITVFVPQWRTRRDPNITEQHFLTQLQELGILSLTPARMVFGERIASHDDRFLLHLADKTGGIIVTNDNFREFVTESVSWREIITKRLLQYTFVGDIFMVPDDPLGRNGPRLEEFLRKEAFLRHMQPLLNALPSVGTFDPGFRSPSTQVANNSHQPPPRIQTSSSPWLPQQSHFTALATLPSMQQNPPLPAQRSSAETSELREALLKIFPDSEQKLKIDQILAAHPYMKDLNALSALVLD
B5: Archain 1 (protein, UniProt P48444 1-511)
chain: MVLLAAAVCTKAGKAIVSRQFVEMTRTRIEGLLAAFPKLMNTGKQHTFVETESVRYVYQPMEKLYMVLITTKNSNILEDLETLRLFSRVIPEYCRALEENEISEHCFDLIFAFDEIVALGYRENVNLAQIRTFTEMDSHEEKVFRAVRETQEREAKAEMRRKAKELQQARRDAERQGKKAPGFGGFGSSAVSGGSTAAMITETIIETDKPKVAPAPARPSGPSKALKLGAKGKEVDNFVDKLKSEGETIMSSSMGKRTSEATKMHAPPINMESVHMKIEEKITLTCGRDGGLQNMELHGMIMLRISDDKYGRIRLHVENEDKKGVQLQTHPNVDKKLFTAESLIGLKNPEKSFPVNSDVGVLKWRLQTTEESFIPLTINCWPSESGNGCDVNIEYELQEDNLELNDVVITIPLPSGVGAPVIGEIDGEYRHDSRRNTLEWCLPVIDAKNKSGSLEFSIAGQPNDFFPVQVSFVSKKNYCNIQVTKVTQVDGNSPVRFSTETTFLVDKYEIL
B6: Serrate RNA effector molecule homolog (Arabidopsis) (protein, UniProt Q99MR6 1-875)
chain: MGDSDDEYDRRRRDKFRRERSDYDRSRERDERRRGDDWNDREWDRGRERRSRGEYRDYDRNRRERFSPPRHELSPPQKRMRRDWDEHSSDPYHSGYDMPYAGGGGGPTYGPPQPWGHPDVHIMQHHVLPIQARLGSIAEIDLGVPPPIMKSFKEFLLSLDDSVDETEAVKRYNDYKLDFRRQQMQDFFLAHKDEEWFRSKYHPDEVGKRRQEARGALQNRLKVFLSLMESGWFDNLLLDIDKADAIVKMLDAAVIKMEGGTENDLRILEQEEEEEQAGKTGEASKKEEARAGPALGEGERKANDKDEKKEDGKQAENDSSNDDKTKKSEGDGDKEEKKEEAEKEAKKSKKRNRKQSGDDSFDEGSVSESESESEGGQAEEEKEEAEEALKEKEKPKEEEKEKPKDAAGLECKPRPLHKTCSLFMRNIAPNISRAEIISLCKRYPGFMRVALSEPQPERRFFRRGWVTFDRSVNIKEICWNLQNIRLRECELSPGVNRDLTRRVRNINGITQHKQIVRNDIKLAAKLIHTLDDRTQLWASEPGTPPVPTSLPSQNPILKNITDYLIEEVSAEEEELLGSSGGPPPEEPPKEGNPAEINVERDEKLIKVLDKLLLYLRIVHSLDYYNTCEYPNEDEMPNRCGIIHVRGPMPPNRISHGEVLEWQKTFEEKLTPLLSVRESLSEEEAQKMGRKDPEQEVEKFVTSNTQELGKDKWLCPLSGKKFKGPEFVRKHIFNKHAEKIEEVKKEVAFFNNFLTDAKRPALPEIKPAQPPGPAQILPPGLTPGLPYPHQTPQGLMPYGQPRPPILGYGAGAVRPAVPTGGPPYPHAPYGAGRGNYDAFRGQGGYPGKPRNRMVRGDPRAIVEYRDLDAPDDVDFF

What follows are molecules tested against T1, Huntingtin Yeast Two-Hybrid Protein K, recombinant 6HN-HYPK (assay: affinity purification with mass spectrometry; 200 µg purified 6HN-HYPK bound to a Ni-NTA column as bait; ~800 µg soluble cell lysate (HeLa, Neuro2A, STHdhQ7/HdhQ7 or STHdhQ111/HdhQ111) as prey overnight; washed with 50 mM Tris pH 8.0, 150 mM NaCl, 1.0% NP-40; eluted with 300 mM imidazole; 1D or 2D SDS-PAGE, unique bands or spots by MALDI-TOF/TOF; only the target purified).

binding	Molecule
binds	Calreticulin (from UniProt P14211 18-416)
binds	Centrosomal protein 290 kDa (from UniProt Q6A078 1-2472)
binds	Eukaryotic translation elongation factor 1 alpha 1 (HeLa) (from UniProt P68104 1-462)
binds	Glutamate dehydrogenase 1 (from UniProt P26443 54-558)
binds	Glutamate dehydrogenase 2 (mouse (endogenous in Neuro2A))
binds	Heat shock 70kDa protein 8 (HeLa) (from UniProt P11142 1-646)
binds	Kinesin family member 20B (from UniProt Q80WE4 1-1774)
binds	Lamin B receptor (from UniProt Q14739 1-615)
binds	Leukocyte receptor cluster (LRC) member 8 (from UniProt Q96PV6 1-800)
binds	Myomesin family, member 3 (from UniProt A2ABU4 1-1439)
binds	Non-metastatic cells 2, protein (NM23B) (from UniProt Q01768 1-152)
binds	Zinc finger protein 100 (mouse (endogenous in Neuro2A))
binds	Zinc finger protein 462 (from UniProt B1AWL2 1-2495)
binds	B1
binds	B2
binds	B3
binds	B4
binds	B5
binds	B6
